Data as given in PubChem BioAssay AID1259308 (NCATS, 2017).
Aim: 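Knock-downs that increase output of a recombinant reporter protein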 (primary screen). Cell system: human HEK293 embryonic kidney cells stably expressing firefly luciferase (HEK-CMV-Luc2-Hygro). Reagent: single siRNA against human genes, 0.8 pmol siRNA per well. Timing: 72 h. Detection: 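Luciferase light (ONE-Glo) measured on one replicate plate set and viability (CellTiter-Glo) on the other, scaled to a negative control siRNA, with robust z-scores and luciferase per cell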. Scale: total luciferase, z-score: higher = more reporter protein produced. Rule for the call: 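An siRNA counts as active if its total luciferase robust z-score exceeds 3; genes with two or more such siRNAs out of three were retested with fresh siRNAs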. Meaning of the calls: active = raised luciferase; inactive = no rise.
Shown is a random part of about 59,000 reagents. Over the whole deposit, about 1,510 (2.6%) were called active. 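Calls use total luciferase alone and ignore viability, so some active siRNAs may act by altering cell number.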 Reagents against one gene are numbered here. Further read-outs or replicates are left out here. Reagent sequences are not shown.

total luciferase, z-score, by target gene and reagent
IRF8: #1 0.0292 inactive; #2 0.75 inactive; #3 0.807 inactive
TBC1D22A-AS1: #1 -0.75 inactive; #2 0.132 inactive; #3 0.19 inactive
LOC389834: #1 0.16 inactive; #2 -0.16 inactive; #3 -0.68 inactive
FBXL14: #1 0.422 inactive; #2 0.499 inactive; #3 -0.278 inactive
NFKBIA: #1 -0.668 inactive; #2 0.732 inactive; #3 2.39 inactive
SP140: #1 -0.503 inactive; #2 -2.06 inactive; #3 0.582 inactive
GZF1: #1 -0.77 inactive; #2 -1.12 inactive; #3 2.7 inactive
PRKCSH: #1 -1.04 inactive; #2 -0.536 inactive; #3 -1.71 inactive
BICC1: #1 -0.19 inactive; #2 1.28 inactive; #3 -1.26 inactive
ANXA2R: #1 0.0634 inactive; #2 -0.464 inactive; #3 0.287 inactive
SLAMF9: #1 -1.85 inactive; #2 -0.817 inactive; #3 0.42 inactive
GRSF1: #1 0.944 inactive; #2 2.39 inactive; #3 -1.2 inactive
BRAP: #1 0.0795 inactive; #2 0.837 inactive; #3 0.0386 inactive

No new results follow: an excerpt of the list.
total luciferase, z-score, by target gene and reagent
IRF8: #2 0.75 inactive; #3 0.807 inactive
TBC1D22A-AS1: #1 -0.75 inactive; #2 0.132 inactive
